The source of these data is article PMC3962350.

These are yes or no findings as the source states them, for the method shown. In cells and extracts the contact can be indirect. Some binding calls cover weakened binding; strength is not graded here.

The experiment has as its target T1, EB1 (endogenous, NIH3T3 fibroblasts) (mouse (endogenous in NIH3T3)) (UniProt Q61166).
T1 sequence: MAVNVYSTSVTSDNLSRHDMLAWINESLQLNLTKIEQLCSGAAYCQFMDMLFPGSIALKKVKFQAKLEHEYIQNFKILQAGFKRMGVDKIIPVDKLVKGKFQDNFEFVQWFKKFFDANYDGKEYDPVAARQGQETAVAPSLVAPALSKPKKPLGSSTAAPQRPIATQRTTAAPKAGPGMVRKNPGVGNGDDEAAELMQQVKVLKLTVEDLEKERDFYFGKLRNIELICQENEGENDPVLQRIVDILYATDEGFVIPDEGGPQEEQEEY
The experiment in a line: co-IP; immunoprecipitation of endogenous EB1 with rabbit anti-EB1 antibody (non-immune rabbit IgG as control) from pre-cleared NIH3T3 fibroblast lysates in 10% RIPA buffer with protease inhibitors and MG132, overnight at 4°C; Protein A/G beads; western blot for EB1 and Kif4. On the technique in general: In western blotting, separated proteins are transferred to a membrane and probed.

B1: Kif4 (endogenous, NIH3T3 fibroblasts) (protein, UniProt P33174 1-1231)
chain: MKEEVKGIPVRVALRCRPLVSKEIKEGCQTCLSFVPGEPQVVVGNDKSFTYDFVFDPSTEQEEVFNTAVAPLIKGVFKGYNATVLAYGQTGSGKTYSMGGAYTAEQEHDSAIGVIPRVIQLLFKEINKKSDFEFTLKVSYLEIYNEEILDLLCSSREKATQINIREDPKEGIKIVGLTEKTVLVASDTVSCLEQGNNSRTVASTAMNSQSSRSHAIFTISIEQRKKNDKNSSFRSKLHLVDLAGSERQKKTKAEGDRLREGININRGLLCLGNVISALGDDKKGNFVPYRDSKLTRLLQDSLGGNSHTLMIACVSPADSNLEETLNTLRYADRARKIKNKPIINIDPQAAELNHLKQQVQQLQILLLQAHGGTLPGDINVEPSENLQSLMEKNQSLVEENEKLSRGLSEAAGQTAQMLERIILTEQANEKMNAKLEELRRHAACKVDLQKLVETLEDQELKENIEIICNLQQVIAQLSDEAAACMTATIDTAGEADTQVQSSPDTSRSSDVFSTQHALRQAQMSKELIELNKALALKEALAKKMTQNDNQLQPIQFQYQDNIKNLESEVLSLQREKEELVLELQTAKKDANQAKLSERRRKRLQELEGQIADLKKKLQEQSKLLKLKESTEHTVSKLNQEIRMMKNQRVQLMRQMKEDAEKFRQWKQQKDKEVIQLKERDRKRQYELLKLERNFQKQSNVLRRKTEEAAAANKRLKDALQKQKEVAEKRKETQSRGMESTAARMKNWLGNEIEVMVSTEEAKRHLNGLLEERKILAQDVAQLKEKRESGENPPLKLRRRTFSYDEIHGQDSGAEDSIAKQIESLETELELRSAQIADLQQKLLDAESEDRPKQRWESIATILEAKCAIKYLVGELVSSKILVSKLESSLNQSKASCIDVQKMLFEEQNHFAKIETELKEELVKVEQQHQEKVLYLLSQLQQSQMTEKQLEESVSEKEQQLLSTLKCQEEELRKMQEVCEQNQQLLQENSAIKQKLTLLQVASKQKPHLTRNIFQSPDSSFEYIPPKPKPCRIKEKCLEQSFAVEGLQYYSEPSVAEQDNEDSDDHADEEWIPTKLVKVSKKSIQGCSCKGWCGNKQCGCRKQKSDCNVSCSCDPTKCRNRHQNQDNSDAIELNQDSENSFKLEDPTEVTSGLSFFHPICATPSSKILKEMCDADQVQLKQPVFVSSSDHPELKSIASESQENKAIGKKKKRALASNTSFFSGCSPIQEESH
With B1, the binding result is reported as “binds”.
